# The other results are listed elsewhere or left out.
# The chains behind the UniProt entries cited, without tags or fusion partners. Where a name states a change or a piece, a line headed by the entry shows the natural chain unless it says otherwise.
# UniProt Q92614: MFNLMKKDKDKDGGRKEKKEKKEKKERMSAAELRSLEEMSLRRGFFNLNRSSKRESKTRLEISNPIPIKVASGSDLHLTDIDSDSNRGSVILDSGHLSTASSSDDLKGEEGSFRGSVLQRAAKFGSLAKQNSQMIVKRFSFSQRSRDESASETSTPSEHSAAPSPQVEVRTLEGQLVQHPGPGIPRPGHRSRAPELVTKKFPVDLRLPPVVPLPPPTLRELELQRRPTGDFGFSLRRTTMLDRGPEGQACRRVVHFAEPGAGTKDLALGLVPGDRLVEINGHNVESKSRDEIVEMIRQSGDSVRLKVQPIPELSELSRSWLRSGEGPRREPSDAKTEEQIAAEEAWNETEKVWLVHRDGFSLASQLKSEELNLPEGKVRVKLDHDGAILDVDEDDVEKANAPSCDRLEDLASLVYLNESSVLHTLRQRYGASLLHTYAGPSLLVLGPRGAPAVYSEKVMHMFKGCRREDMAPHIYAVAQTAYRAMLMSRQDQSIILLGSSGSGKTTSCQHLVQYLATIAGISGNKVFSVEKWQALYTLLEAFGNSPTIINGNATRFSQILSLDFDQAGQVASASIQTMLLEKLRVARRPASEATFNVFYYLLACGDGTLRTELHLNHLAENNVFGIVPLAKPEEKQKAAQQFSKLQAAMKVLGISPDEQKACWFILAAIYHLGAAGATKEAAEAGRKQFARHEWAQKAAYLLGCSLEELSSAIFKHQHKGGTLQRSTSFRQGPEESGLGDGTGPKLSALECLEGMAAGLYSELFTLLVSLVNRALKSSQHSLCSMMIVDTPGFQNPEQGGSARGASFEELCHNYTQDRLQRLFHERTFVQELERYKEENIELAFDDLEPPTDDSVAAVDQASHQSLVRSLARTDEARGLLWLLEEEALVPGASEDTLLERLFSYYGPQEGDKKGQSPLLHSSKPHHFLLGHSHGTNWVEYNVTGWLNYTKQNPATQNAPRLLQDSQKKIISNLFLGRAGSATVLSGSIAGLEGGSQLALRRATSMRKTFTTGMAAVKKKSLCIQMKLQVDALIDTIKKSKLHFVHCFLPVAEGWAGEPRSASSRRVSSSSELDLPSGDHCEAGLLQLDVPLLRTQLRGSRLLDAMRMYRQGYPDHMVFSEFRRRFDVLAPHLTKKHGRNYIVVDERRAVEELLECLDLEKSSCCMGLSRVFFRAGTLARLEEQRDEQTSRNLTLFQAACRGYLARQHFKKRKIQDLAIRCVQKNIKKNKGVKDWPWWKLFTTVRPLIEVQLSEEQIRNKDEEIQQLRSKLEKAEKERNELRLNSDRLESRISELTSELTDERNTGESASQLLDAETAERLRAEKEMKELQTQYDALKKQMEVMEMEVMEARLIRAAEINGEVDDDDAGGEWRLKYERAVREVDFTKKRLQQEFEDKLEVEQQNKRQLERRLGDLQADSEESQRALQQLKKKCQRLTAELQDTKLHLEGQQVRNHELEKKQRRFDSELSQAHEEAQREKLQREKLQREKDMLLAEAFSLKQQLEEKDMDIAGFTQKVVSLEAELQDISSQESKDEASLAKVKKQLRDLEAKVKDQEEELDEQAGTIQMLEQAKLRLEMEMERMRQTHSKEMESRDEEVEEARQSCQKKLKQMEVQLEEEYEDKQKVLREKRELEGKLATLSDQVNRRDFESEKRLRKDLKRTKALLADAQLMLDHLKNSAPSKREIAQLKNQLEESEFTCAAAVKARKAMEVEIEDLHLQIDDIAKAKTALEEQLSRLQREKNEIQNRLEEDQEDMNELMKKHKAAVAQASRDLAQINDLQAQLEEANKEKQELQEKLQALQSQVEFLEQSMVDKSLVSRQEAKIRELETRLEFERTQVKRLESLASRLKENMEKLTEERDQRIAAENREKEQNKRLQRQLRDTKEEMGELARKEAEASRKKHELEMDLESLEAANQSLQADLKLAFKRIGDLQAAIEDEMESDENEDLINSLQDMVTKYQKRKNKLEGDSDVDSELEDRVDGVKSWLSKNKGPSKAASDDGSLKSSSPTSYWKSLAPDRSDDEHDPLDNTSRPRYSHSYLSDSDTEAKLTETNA
# UniProt Q6IBW4: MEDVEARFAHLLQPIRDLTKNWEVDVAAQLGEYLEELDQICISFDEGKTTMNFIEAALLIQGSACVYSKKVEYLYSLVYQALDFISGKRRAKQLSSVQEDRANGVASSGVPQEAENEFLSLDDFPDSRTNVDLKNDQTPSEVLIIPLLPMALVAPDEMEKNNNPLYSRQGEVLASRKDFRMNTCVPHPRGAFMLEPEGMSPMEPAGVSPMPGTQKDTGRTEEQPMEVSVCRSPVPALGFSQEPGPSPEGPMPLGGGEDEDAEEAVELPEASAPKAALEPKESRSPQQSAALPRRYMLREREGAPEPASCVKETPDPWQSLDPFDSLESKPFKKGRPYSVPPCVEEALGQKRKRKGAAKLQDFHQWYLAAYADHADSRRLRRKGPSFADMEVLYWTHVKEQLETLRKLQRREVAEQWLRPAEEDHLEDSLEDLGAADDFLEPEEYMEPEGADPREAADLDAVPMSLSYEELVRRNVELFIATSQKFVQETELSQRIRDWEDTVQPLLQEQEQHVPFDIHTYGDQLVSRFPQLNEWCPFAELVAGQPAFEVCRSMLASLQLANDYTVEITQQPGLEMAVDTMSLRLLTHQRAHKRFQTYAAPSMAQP
# UniProt Q9BQG0: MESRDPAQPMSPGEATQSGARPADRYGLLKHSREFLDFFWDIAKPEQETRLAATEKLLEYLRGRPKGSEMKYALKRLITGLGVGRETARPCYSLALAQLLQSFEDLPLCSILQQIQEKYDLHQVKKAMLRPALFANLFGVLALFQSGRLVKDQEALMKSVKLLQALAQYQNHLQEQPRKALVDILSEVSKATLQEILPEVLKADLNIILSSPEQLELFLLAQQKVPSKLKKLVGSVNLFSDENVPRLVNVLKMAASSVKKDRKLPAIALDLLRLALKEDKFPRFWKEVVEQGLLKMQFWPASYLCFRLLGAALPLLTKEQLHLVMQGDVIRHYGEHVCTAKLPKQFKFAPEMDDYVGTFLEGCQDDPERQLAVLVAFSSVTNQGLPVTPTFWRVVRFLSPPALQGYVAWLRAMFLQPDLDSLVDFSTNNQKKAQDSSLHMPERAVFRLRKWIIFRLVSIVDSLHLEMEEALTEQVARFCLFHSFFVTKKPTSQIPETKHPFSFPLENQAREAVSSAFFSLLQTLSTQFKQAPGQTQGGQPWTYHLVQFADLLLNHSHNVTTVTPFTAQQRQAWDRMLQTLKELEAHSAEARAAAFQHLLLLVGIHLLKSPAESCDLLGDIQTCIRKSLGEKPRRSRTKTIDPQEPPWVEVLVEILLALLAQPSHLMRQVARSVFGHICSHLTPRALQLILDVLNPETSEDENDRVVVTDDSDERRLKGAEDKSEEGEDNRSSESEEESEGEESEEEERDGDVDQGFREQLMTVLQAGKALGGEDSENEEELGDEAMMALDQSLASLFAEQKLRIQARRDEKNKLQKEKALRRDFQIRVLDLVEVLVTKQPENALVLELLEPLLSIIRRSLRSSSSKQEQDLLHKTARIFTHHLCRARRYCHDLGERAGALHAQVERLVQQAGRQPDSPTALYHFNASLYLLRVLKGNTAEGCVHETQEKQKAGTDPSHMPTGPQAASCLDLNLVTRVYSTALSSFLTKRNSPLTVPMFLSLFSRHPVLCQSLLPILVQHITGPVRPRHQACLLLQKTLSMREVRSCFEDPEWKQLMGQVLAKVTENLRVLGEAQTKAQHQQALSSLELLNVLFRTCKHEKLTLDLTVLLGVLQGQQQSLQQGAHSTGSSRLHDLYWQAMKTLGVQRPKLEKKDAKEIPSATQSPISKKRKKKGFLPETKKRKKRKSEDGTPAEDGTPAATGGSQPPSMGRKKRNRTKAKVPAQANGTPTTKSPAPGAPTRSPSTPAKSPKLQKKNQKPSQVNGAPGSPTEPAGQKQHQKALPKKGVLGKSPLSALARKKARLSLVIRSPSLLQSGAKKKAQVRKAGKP
# UniProt Q9H0A0: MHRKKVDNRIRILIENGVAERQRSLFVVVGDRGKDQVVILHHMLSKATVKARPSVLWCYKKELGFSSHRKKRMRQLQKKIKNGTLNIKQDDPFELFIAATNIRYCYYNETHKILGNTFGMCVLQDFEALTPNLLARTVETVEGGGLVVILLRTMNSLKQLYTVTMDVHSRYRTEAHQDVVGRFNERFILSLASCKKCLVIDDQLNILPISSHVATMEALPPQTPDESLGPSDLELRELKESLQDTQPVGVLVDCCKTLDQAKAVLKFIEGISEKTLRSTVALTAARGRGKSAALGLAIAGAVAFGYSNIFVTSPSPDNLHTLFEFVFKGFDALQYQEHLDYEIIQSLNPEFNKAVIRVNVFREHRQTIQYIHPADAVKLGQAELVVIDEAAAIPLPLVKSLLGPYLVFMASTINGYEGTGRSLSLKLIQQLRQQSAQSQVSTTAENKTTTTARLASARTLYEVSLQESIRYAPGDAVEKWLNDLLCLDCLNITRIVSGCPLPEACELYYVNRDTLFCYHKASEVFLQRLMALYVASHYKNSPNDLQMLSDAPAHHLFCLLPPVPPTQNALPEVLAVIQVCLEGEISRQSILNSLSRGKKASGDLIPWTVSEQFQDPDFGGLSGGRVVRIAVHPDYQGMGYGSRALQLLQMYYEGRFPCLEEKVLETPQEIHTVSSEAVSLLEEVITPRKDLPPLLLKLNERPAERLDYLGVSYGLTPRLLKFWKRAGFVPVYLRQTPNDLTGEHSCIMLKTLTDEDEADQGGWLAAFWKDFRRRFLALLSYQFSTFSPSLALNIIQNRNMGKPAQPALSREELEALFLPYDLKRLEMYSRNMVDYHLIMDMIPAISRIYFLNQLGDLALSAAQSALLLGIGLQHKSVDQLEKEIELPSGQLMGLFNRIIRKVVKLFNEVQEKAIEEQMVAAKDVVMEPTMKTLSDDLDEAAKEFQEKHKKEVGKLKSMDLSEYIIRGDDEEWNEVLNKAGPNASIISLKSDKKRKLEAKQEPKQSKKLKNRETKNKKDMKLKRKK
# UniProt Q9BRA0: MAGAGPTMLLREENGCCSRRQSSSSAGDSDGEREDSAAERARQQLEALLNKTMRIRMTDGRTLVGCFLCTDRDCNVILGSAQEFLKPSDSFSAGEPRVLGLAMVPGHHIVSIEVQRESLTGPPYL
# UniProt Q9Y5N5: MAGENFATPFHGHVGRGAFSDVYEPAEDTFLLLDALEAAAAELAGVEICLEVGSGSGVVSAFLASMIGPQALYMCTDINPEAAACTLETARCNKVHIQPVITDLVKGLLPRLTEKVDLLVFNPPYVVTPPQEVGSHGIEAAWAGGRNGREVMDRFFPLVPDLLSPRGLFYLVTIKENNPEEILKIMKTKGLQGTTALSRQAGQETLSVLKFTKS
# UniProt Q5VVJ2: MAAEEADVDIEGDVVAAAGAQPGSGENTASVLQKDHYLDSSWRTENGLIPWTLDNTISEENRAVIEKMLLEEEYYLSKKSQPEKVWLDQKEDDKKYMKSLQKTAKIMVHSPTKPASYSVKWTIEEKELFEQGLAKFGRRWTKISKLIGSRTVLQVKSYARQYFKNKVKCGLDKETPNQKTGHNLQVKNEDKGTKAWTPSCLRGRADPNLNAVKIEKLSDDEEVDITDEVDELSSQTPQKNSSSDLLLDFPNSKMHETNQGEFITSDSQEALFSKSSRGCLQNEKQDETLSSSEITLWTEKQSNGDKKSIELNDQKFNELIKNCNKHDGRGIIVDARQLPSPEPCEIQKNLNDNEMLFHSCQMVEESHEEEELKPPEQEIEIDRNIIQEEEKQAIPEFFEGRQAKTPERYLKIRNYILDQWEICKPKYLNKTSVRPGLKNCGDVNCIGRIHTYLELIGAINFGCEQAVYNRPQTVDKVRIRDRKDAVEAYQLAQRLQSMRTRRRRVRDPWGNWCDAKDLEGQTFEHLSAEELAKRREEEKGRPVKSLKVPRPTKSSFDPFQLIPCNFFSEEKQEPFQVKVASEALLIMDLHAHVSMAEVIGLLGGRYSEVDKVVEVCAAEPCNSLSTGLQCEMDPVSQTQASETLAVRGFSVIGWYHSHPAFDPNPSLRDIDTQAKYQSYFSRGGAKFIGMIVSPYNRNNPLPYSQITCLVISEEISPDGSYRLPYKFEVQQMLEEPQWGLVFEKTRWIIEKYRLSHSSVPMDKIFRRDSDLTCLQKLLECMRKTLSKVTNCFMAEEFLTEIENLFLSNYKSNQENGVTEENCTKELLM
# UniProt Q6P582, whole entry, looked up: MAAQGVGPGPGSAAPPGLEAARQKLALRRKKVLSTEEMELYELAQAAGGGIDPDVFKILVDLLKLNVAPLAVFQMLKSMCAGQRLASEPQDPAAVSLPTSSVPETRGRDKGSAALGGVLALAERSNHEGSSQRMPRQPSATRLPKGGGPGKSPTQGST
# Assays:
# Assay in all cases: log2 fold change, soluble protein after heating vs DMSO (PISA); higher = thermal stabilisation; K562 lysate, 10 uM; active = over 0.2 and 3.5 SD of the protein, either way, in both replicates (recomputed)
# ibrutinib = compound: C=CC(=O)N1CCC[C@@H](n2nc(-c3ccc(Oc4ccccc4)cc3)c3c(N)ncnc32)C1 [ibrutinib]
# How it was run: (§1)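 Following dounce homogenisation of K562 pellets in PBS pH 7.4 with 1 mM MgCl2, crude extract at 1 mg/mL protein was incubated for 30 min with 10 μM compound. Aliquots were then heated for 3 min over 48°C-58°C and pooled, NP-40 was added to 0.5% at 4°C, and soluble protein was recovered as the supernatant at 21,000xg for 90 min. Channel-sum-equalised TMTpro 16plex LC-MS/MS quantified this protein. Each value, from duplicates, is a log-two fold change in thermal stability relative to solvent controls.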
# [1] = compound: CC(=O)c1cnc2ccc(-c3cc(Cl)c(O)c(Cl)c3)nc2c1N[C@H]1CC[C@H](CN(C)C)CC1
# How it was run: as §1
# ralimetinib = compound: CC(C)(C)Cn1c(N)nc2ccc(-c3[nH]c(C(C)(C)C)nc3-c3ccc(F)cc3)nc21 [ralimetinib]
# How it was run: as §1
# [2] = compound: CC(C)(O)CC(=O)NCCn1ccc2ncnc(Nc3ccc(Oc4cccc(C(F)(F)F)c4)c(Cl)c3)c21
# How it was run: as §1
# [3] = compound: CC(C)C1=C2N=C(C=C(N2N=C1)NCC3=CC=CC=C3)NCCCCCCN
# How it was run: as §1
# [4] = compound: CC1=C(C(CC(=O)N1)C2=CC=C(C=C2)C(F)(F)F)C(=O)NC3=C(C=C4C(=C3)C=NN4)F
# How it was run: as §1
# [5] = compound: CC1=C(C2=C(C=C1)C(=O)C3=CC=CC=C3N2CCCN)C
# How it was run: as §1
# [6] = compound: CC1=C(C=C(C=C1)NC(=O)C2=CC(=CC=C2)C(C)(C)C#N)NC3=CC4=C(C=C3)N=CN(C4=O)C
# How it was run: as §1
# [7] = compound: CC1=C(C=C(C=C1)NC(=O)C2=CC(=CC=C2)N(C)C)NC(=O)C3=CC=C(C=C3)O
# How it was run: as §1
# [8] = compound: CC1=CC=C(C=C1)SC2=C3C=C(SC3=CN=C2)C(=O)N
# How it was run: as §1
# vemurafenib = compound: CCCS(=O)(=O)Nc1ccc(F)c(C(=O)c2c[nH]c3ncc(-c4ccc(Cl)cc4)cc23)c1F [vemurafenib]
# How it was run: as §1
# [9] = compound: CCCS(=O)(=O)Nc1ccc(F)c(C(=O)c2c[nH]c3ncc(Cl)cc23)c1F
# How it was run: as §1
# barasertib = compound: CCN(CCCOc1ccc2c(Nc3cc(CC(=O)Nc4cccc(F)c4)[nH]n3)ncnc2c1)CCOP(=O)(O)O [barasertib]
# How it was run: as §1
# [10] = compound: CC[C@@H]1C(=O)N(C)c2cnc(Nc3ccc(C(=O)NC4CCN(C)CC4)cc3OC)nc2N1C1CCCC1
# How it was run: as §1
# volasertib = compound: CC[C@@H]1C(=O)N(C)c2cnc(Nc3ccc(C(=O)N[C@H]4CC[C@H](N5CCN(CC6CC6)CC5)CC4)cc3OC)nc2N1C(C)C [volasertib]
# How it was run: as §1
# [11] = compound: CCn1c(C(=O)N(C2CC2)C2CC2)cc2c3c(ncn3C)c(Nc3cc(C)n(C)n3)nc21
# How it was run: as §1
# [12] = compound: CCn1cc(-c2ccnc3[nH]c(-c4cccc(CN(C)C)c4)cc23)c(-c2ccc(NC(=O)N(C)C)cc2)n1
# How it was run: as §1
# [13] = compound: CN1CCC(CNc2ccc3ncc(-c4cccc(OC(F)(F)F)c4)n3n2)CC1
# How it was run: as §1
# saracatinib = compound: CN1CCN(CCOc2cc(OC3CCOCC3)c3c(Nc4c(Cl)ccc5c4OCO5)ncnc3c2)CC1 [saracatinib]
# How it was run: as §1
# sotrastaurin = compound: CN1CCN(c2nc(C3=C(c4c[nH]c5ccccc45)C(=O)NC3=O)c3ccccc3n2)CC1 [sotrastaurin]
# How it was run: as §1
Target,log2 fold change (ibrutinib),log2 fold change [1],log2 fold change (ralimetinib),log2 fold change [2],log2 fold change [3],log2 fold change [4],log2 fold change [5],log2 fold change [6],log2 fold change [7],log2 fold change [8],log2 fold change (vemurafenib),log2 fold change [9],log2 fold change (barasertib),log2 fold change [10],log2 fold change (volasertib),log2 fold change [11],log2 fold change [12],log2 fold change [13],log2 fold change (saracatinib),log2 fold change (sotrastaurin)
NAP1L1 isoform 3 (UniProt P55209),inactive: -0.162,inactive: 0.036,inactive: 0.104,inactive: -0.101,inactive: -0.175,inactive: -0.087,inactive: 0.023,inactive: 0.099,inactive: 0.262,inactive: -0.088,inactive: 0.323,inactive: -0.066,inactive: 0.105,inactive: 0.015,inactive: -0.225,inactive: -0.103,inactive: -0.514,inactive: 0.1,inactive: 0.042,inactive: 0.087
MYO18A (UniProt Q92614),inactive: 0.028,inactive: -0.013,inactive: 0.016,inactive: 0.007,inactive: 0.013,inactive: 0.007,inactive: -0.011,inactive: 0.009,inactive: -0.005,inactive: -0.018,inactive: 0.01,inactive: 0.006,inactive: -0.01,inactive: 0.036,inactive: -0.03,inactive: -0.004,inactive: -0.024,inactive: 0.022,inactive: -0.004,inactive: 0.01
NCAPH2 (UniProt Q6IBW4),inactive: -0.033,inactive: -0.01,inactive: 0.066,inactive: -0.091,inactive: 0.028,inactive: -0.017,inactive: 0,inactive: 0.01,inactive: 0.055,inactive: 0.011,inactive: -0.044,inactive: 0.027,inactive: 0.058,inactive: 0.027,inactive: -0.002,inactive: -0.014,inactive: -0.032,inactive: 0.02,inactive: 0.001,inactive: 0.03
NADK2 (UniProt Q4G0N4),inactive: -0.017,inactive: -0.006,inactive: 0.005,inactive: -0.03,inactive: -0.02,inactive: -0.007,inactive: 0.008,inactive: 0.024,inactive: 0.023,inactive: 0.042,inactive: 0.024,inactive: -0.013,inactive: 0.034,inactive: 0.078,inactive: 0.008,inactive: -0.016,inactive: -0.019,inactive: 0.02,inactive: -0.035,inactive: -0.036
MYH9 (UniProt P35579),inactive: -0.012,inactive: -0.018,inactive: -0.002,inactive: -0.024,inactive: 0,inactive: -0.01,inactive: -0.016,inactive: -0.002,inactive: -0.01,inactive: -0.01,inactive: -0.009,inactive: 0.042,inactive: -0.002,inactive: 0.006,inactive: -0.013,inactive: -0.007,inactive: 0.013,inactive: -0.006,inactive: 0.019,inactive: 0.007
NACC1 (UniProt Q96RE7),inactive: -0.015,inactive: -0.001,inactive: 0.009,inactive: -0.003,inactive: -0.014,inactive: 0.039,inactive: -0.016,inactive: -0.022,inactive: 0.009,inactive: -0.022,inactive: -0.039,inactive: -0.003,inactive: 0.039,inactive: -0.027,inactive: 0.008,inactive: 0.004,inactive: -0.059,inactive: -0.003,inactive: -0.016,inactive: 0.034
MYBBP1A isoform 2 (UniProt Q9BQG0),inactive: -0.018,inactive: -0.013,inactive: 0.039,inactive: -0.01,inactive: -0.019,inactive: 0.004,inactive: -0.061,inactive: -0.015,inactive: 0.023,inactive: 0.021,inactive: 0.017,inactive: 0.032,inactive: 0.021,inactive: -0.048,inactive: 0.004,inactive: 0.034,inactive: 0.032,inactive: -0.038,inactive: 0.007,inactive: 0.008
NACA (UniProt E9PAV3),inactive: 0.004,inactive: -0.001,inactive: -0.01,inactive: -0.04,inactive: -0.005,inactive: -0.014,inactive: -0.015,inactive: 0.033,inactive: 0.001,inactive: -0.026,inactive: -0.005,inactive: -0.013,inactive: -0.056,inactive: 0.039,inactive: 0.017,inactive: -0.023,inactive: -0.187,inactive: 0.083,inactive: -0.01,inactive: 0.032
NAT10 (UniProt Q9H0A0),inactive: 0.025,inactive: -0.011,inactive: 0.026,inactive: -0.037,inactive: -0.007,inactive: -0.006,inactive: 0.013,inactive: 0.015,inactive: 0.018,inactive: 0.041,inactive: 0.03,inactive: 0.01,inactive: -0.024,inactive: -0.019,inactive: -0.02,inactive: -0.012,inactive: 0.01,inactive: -0.036,inactive: -0.005,inactive: 0.036
NAA30 (UniProt Q147X3),inactive: 0.013,inactive: -0.017,inactive: 0.057,inactive: -0.037,inactive: -0.018,inactive: 0.084,inactive: -0.024,inactive: -0.045,inactive: 0.004,inactive: 0.046,inactive: 0.001,inactive: 0.009,inactive: 0.037,inactive: 0.043,inactive: 0.012,inactive: -0.058,inactive: -0.022,inactive: 0.043,inactive: -0.003,inactive: 0.045
NAA38 isoform 2 (UniProt Q9BRA0),inactive: 0.015,inactive: -0.012,inactive: -0.02,inactive: -0.015,inactive: -0.014,inactive: 0.052,inactive: -0.017,inactive: -0.028,inactive: 0.022,inactive: -0.029,inactive: 0.049,inactive: 0.014,inactive: 0.09,inactive: -0.012,inactive: 0.025,inactive: 0.04,active: -0.461,inactive: 0.201,inactive: 0.042,inactive: -0.079
N6AMT1 (UniProt Q9Y5N5),inactive: 0.103,inactive: -0.03,inactive: 0.005,inactive: -0.006,inactive: 0.009,inactive: -0.045,inactive: -0.026,inactive: 0.01,inactive: 0.024,inactive: 0.027,inactive: 0.201,inactive: -0.016,inactive: 0.113,inactive: 0.005,inactive: -0.04,inactive: 0.006,inactive: -0.047,inactive: -0.048,inactive: 0.019,inactive: 0.038
MYSM1 (UniProt Q5VVJ2),inactive: -0.007,inactive: 0.005,inactive: -0.01,inactive: -0.019,inactive: -0.018,inactive: -0.08,inactive: -0.01,inactive: 0.028,inactive: 0.077,inactive: -0.019,inactive: -0.007,inactive: 0.04,inactive: 0.042,inactive: -0.062,inactive: -0.05,inactive: 0.018,inactive: -0.045,inactive: 0.039,inactive: -0.031,inactive: 0.043
NCOA5 (UniProt Q9HCD5),inactive: 0.105,inactive: 0.049,inactive: -0.091,inactive: 0.04,inactive: -0.015,inactive: -0.145,inactive: 0.017,inactive: 0.046,inactive: -0.101,inactive: 0.014,inactive: -0.133,inactive: 0.013,inactive: 0.005,inactive: 0.048,inactive: -0.002,inactive: -0.044,inactive: -0.087,inactive: -0.008,inactive: 0,inactive: -0.014
MZT2A (UniProt Q6P582),inactive: 0.069,inactive: 0.045,inactive: -0.05,inactive: 0.107,inactive: -0.072,inactive: 0.042,inactive: 0.048,inactive: -0.067,inactive: -0.101,inactive: 0.032,inactive: 0.027,inactive: -0.021,inactive: -0.022,inactive: 0.07,inactive: 0.055,inactive: 0.218,inactive: 0.112,inactive: -0.105,inactive: 0,inactive: -0.086

# Limited to log2 fold change [12] and log2 fold change (vemurafenib), for some of the entries so far:
Target | log2 fold change [12] | log2 fold change (vemurafenib)
NAT10 (UniProt Q9H0A0) | inactive: 0.01 | inactive: 0.03
N6AMT1 (UniProt Q9Y5N5) | inactive: -0.047 | inactive: 0.201
